Results taken from patent US20040248129A1, “Rhesus monkey, dog and feeret melanin-concentrating hormone type 1 receptor” (priority 2001, published 2004).
Not every detail of the peptide structures is certain; ends, links or a residue may be inferred.

Test system: non-transfected cells (HEK293T)
Test: Intracellular calcium (fura-2) in non-transfected HEK293T cells
Assay type: cell-based, human
Details: data not shown

Compound: CSCC[C@@H]1NC(=O)[C@@H](NC(=O)[C@H](CCCNC(=N)N)NC(=O)[C@H](CC(C)C)NC(=O)[C@H](CCSC)NC(=O)[C@H](CC(=O)O)NC(=O)[C@H](Cc2ccccc2)NC(=O)[C@@H](N)CC(=O)O)CSSC[C@@H](C(=O)N[C@@H](Cc2c[nH]c3ccccc23)C(=O)N[C@@H](CCC(N)=O)C(=O)N[C@H](C(=O)O)C(C)C)NC(=O)[C@@H]2CCCN2C(=O)[C@H](CCCNC(=N)N)NC(=O)[C@H](Cc2ccc(O)cc2)NC(=O)[C@H](C(C)C)NC(=O)[C@H](CCCNC(=N)N)NC(=O)CNC(=O)[C@H](CC(C)C)NC1=O [MCH, Melanin-concentrating hormone]
- [Ca2+]i increase in non-transfected cells: failed to induce detectable [Ca^2+]i increase
